Source: the supplement of paper PMC8728848
The other results are listed elsewhere or left out.

Tests used:
Assay in all cases: glycan array binding signal (z-score within array); higher = stronger binding
Conditions in all cases: glycan notation: IUPAC condensed, linker removed
[1] = target: GalNAc(a1-3)GalNAc(b1-3)Gal(a1-4)Gal(b1-4)Glc
How it was run: (§1)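 Columns mapping to the same glycan were averaged after glycan names were converted to IUPAC-condensed notation. The data come from 3228 arrays in the Consortium for Functional Glycomics database, limited to those with an available protein sequence. Binding is reported as a within-array Z-score averaged across arrays of one protein sequence and across linkers.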

[2] = target: GalNAc(a1-3)GalNAc(b1-3)Gal(a1-4)Gal(b1-4)GlcNAc
How it was run: as §1

[3] = target: GalNAc(b1-3)Gal
How it was run: as §1

[4] = target: GalNAc(b1-3)Gal(a1-4)Gal(b1-4)GlcNAc
How it was run: as §1

[5] = target: GalNAc(b1-3)Gal(a1-4)Gal(b1-4)GlcNAc(b1-3)Gal(b1-4)Glc
How it was run: as §1

[6] = target: GalNAc(b1-3)Gal(a1-6)Gal(b1-4)Glc
How it was run: as §1

[7] = target: GalNAc(b1-3)GalNAc
How it was run: as §1

[8] = target: GalNAc(b1-3)GlcNAc
How it was run: as §1

[9] = target: GalNAc(b1-4)Gal(b1-4)Glc
How it was run: as §1

[10] = target: GalNAc(b1-4)GlcNAc
How it was run: as §1

[11] = target: GalNAc(b1-4)GlcNAc(b1-2)Man
How it was run: as §1

[12] = target: GalNAc(b1-4)GlcNAc(b1-2)Man(a1-3)[GalNAc(b1-4)GlcNAc(b1-2)Man(a1-6)]Man(b1-4)GlcNAc(b1-4)GlcNAc
How it was run: as §1

[13] = target: GalNAc(b1-4)GlcNAc(b1-3)GalNAc(b1-4)GlcNAc
How it was run: as §1

[14] = target: GalNAc(b1-4)GlcNAc6S
How it was run: as §1

[15] = target: GalNAc(b1-6)GalNAc
How it was run: as §1

[16] = target: GalNAc3S(b1-4)GlcNAc
How it was run: as §1

[17] = target: GalNAc3S(b1-4)GlcNAc3S
How it was run: as §1

[18] = target: GalNAc3S(b1-4)[Fuc(a1-3)]GlcNAc
How it was run: as §1

[19] = target: GalNAc4S6S(b1-4)GlcNAc
How it was run: as §1

[20] = target: GalNAc6S(b1-4)GlcNAc
How it was run: as §1

[21] = target: Glc(a1-4)Glc
How it was run: as §1

[22] = target: Glc(a1-4)Glc(a1-4)Glc(a1-4)Glc
How it was run: as §1

[23] = target: Glc(a1-6)Glc(a1-6)Glc
How it was run: as §1

[24] = target: Glc(a1-6)Glc(a1-6)Glc(a1-6)Glc
How it was run: as §1

[25] = target: Glc(b1-4)Glc
How it was run: as §1

[26] = target: Glc(b1-6)Glc
How it was run: as §1

[27] = target: GlcA(b1-3)Gal
How it was run: as §1

[28] = target: GlcA(b1-3)GlcNAc
How it was run: as §1

[29] = target: GlcA(b1-6)Gal
How it was run: as §1

[30] = target: GlcA3S(b1-3)Gal(b1-4)GlcNAc(b1-2)Man
How it was run: as §1

[31] = target: GlcA3S(b1-3)Gal(b1-4)GlcNAc(b1-3)Gal(b1-4)Glc
How it was run: as §1

[32] = target: GlcNAc(a1-3)Gal(b1-4)GlcNAc
How it was run: as §1

[33] = target: GlcNAc(a1-4)Gal(b1-3)GlcNAc
How it was run: as §1

[34] = target: GlcNAc(a1-4)Gal(b1-4)GalNAc
How it was run: as §1

[35] = target: GlcNAc(a1-4)Gal(b1-4)GlcNAc
How it was run: as §1

[36] = target: GlcNAc(a1-4)Gal(b1-4)GlcNAc(b1-3)Gal(b1-4)Glc
How it was run: as §1

[37] = target: GlcNAc(a1-4)Gal(b1-4)GlcNAc(b1-3)Gal(b1-4)GlcNAc
How it was run: as §1

[38] = target: GlcNAc(a1-4)Gal(b1-4)GlcNAc(b1-3)Gal(b1-4)GlcNAc(b1-3)Gal(b1-4)GlcNAc
How it was run: as §1

[39] = target: GlcNAc(a1-4)Gal(b1-4)GlcNAc(b1-3)Gal(b1-4)[Fuc(a1-3)]GlcNAc(b1-3)Gal(b1-4)[Fuc(a1-3)]GlcNAc
How it was run: as §1

[40] = target: GlcNAc(a1-6)Gal(b1-4)GlcNAc
How it was run: as §1

[41] = target: GlcNAc(b1-2)Gal(b1-3)GalNAc
How it was run: as §1

[42] = target: GlcNAc(b1-2)Man(a1-3)[GlcNAc(b1-2)Man(a1-6)]Man(b1-4)GlcNAc(b1-4)GlcNAc
How it was run: as §1

[43] = target: GlcNAc(b1-2)Man(a1-3)[GlcNAc(b1-2)Man(a1-6)]Man(b1-4)GlcNAc(b1-4)[Fuc(a1-6)]GlcNAc
How it was run: as §1

[44] = target: GlcNAc(b1-2)Man(a1-3)[GlcNAc(b1-4)][GlcNAc(b1-2)Man(a1-6)]Man(b1-4)GlcNAc(b1-4)GlcNAc
How it was run: as §1

[45] = target: GlcNAc(b1-2)Man(a1-3)[GlcNAc(b1-4)][GlcNAc(b1-2)Man(a1-6)]Man(b1-4)GlcNAc(b1-4)[Fuc(a1-6)]GlcNAc
How it was run: as §1

[46] = target: GlcNAc(b1-2)[GlcNAc(b1-4)]Man(a1-3)[GlcNAc(b1-2)Man(a1-6)]Man(b1-4)GlcNAc(b1-4)GlcNAc
How it was run: as §1

[47] = target: GlcNAc(b1-2)[GlcNAc(b1-4)]Man(a1-3)[GlcNAc(b1-4)][GlcNAc(b1-2)Man(a1-6)]Man(b1-4)GlcNAc(b1-4)GlcNAc
How it was run: as §1

[48] = target: GlcNAc(b1-2)[GlcNAc(b1-4)]Man(a1-3)[GlcNAc(b1-4)][GlcNAc(b1-2)[GlcNAc(b1-6)]Man(a1-6)]Man(b1-4)GlcNAc(b1-4)GlcNAc
How it was run: as §1

[49] = target: GlcNAc(b1-2)[GlcNAc(b1-4)]Man(a1-3)[GlcNAc(b1-4)][GlcNAc(b1-2)[GlcNAc(b1-6)]Man(a1-6)]Man(b1-4)GlcNAc(b1-4)[Fuc(a1-6)]GlcNAc
How it was run: as §1

[50] = target: GlcNAc(b1-2)[GlcNAc(b1-6)]Man(a1-6)[GlcNAc(b1-2)Man(a1-3)]Man(b1-4)GlcNAc(b1-4)GlcNAc
How it was run: as §1

[51] = target: GlcNAc(b1-2)[GlcNAc(b1-6)]Man(a1-6)[GlcNAc(b1-2)Man(a1-3)]Man(b1-4)GlcNAc(b1-4)[Fuc(a1-6)]GlcNAc
How it was run: as §1

[52] = target: GlcNAc(b1-2)[GlcNAc(b1-6)]Man(a1-6)[GlcNAc(b1-2)Man(a1-3)][GlcNAc(b1-4)]Man(b1-4)GlcNAc(b1-4)GlcNAc
How it was run: as §1

[53] = target: GlcNAc(b1-2)[GlcNAc(b1-6)]Man(a1-6)[GlcNAc(b1-4)][GlcNAc(b1-2)Man(a1-3)]Man(b1-4)GlcNAc(b1-4)GlcNAc
How it was run: as §1

B1: NK2 (Sus scrofa) (peptide)
chain: KILRGVCKKIMRTFLRRISKDILTGKK
- glycan array binding signal (z-score) [1]: -0.58
- glycan array binding signal (z-score) [2]: -0.123
- glycan array binding signal (z-score) [3]: -0.003
- glycan array binding signal (z-score) [4]: -0.855
- glycan array binding signal (z-score) [5]: 0.87
- glycan array binding signal (z-score) [6]: -0.616
- glycan array binding signal (z-score) [7]: 0.164
- glycan array binding signal (z-score) [8]: -0.451
- glycan array binding signal (z-score) [9]: 0.603
- glycan array binding signal (z-score) [10]: -0.865
- glycan array binding signal (z-score) [11]: 0.202
- glycan array binding signal (z-score) [12]: 1.16
- glycan array binding signal (z-score) [13]: -0.686
- glycan array binding signal (z-score) [14]: 0.536
- glycan array binding signal (z-score) [15]: -0.797
- glycan array binding signal (z-score) [16]: 0.948
- glycan array binding signal (z-score) [17]: 0.142
- glycan array binding signal (z-score) [18]: -0.412
- glycan array binding signal (z-score) [19]: 1.04
- glycan array binding signal (z-score) [20]: 0.828
- glycan array binding signal (z-score) [21]: 0.301
- glycan array binding signal (z-score) [22]: 0.05
- glycan array binding signal (z-score) [23]: -0.341
- glycan array binding signal (z-score) [24]: 0.727
- glycan array binding signal (z-score) [25]: 0.034
- glycan array binding signal (z-score) [26]: -0.404
- glycan array binding signal (z-score) [27]: -0.68
- glycan array binding signal (z-score) [28]: 0.429
- glycan array binding signal (z-score) [29]: -0.184
- glycan array binding signal (z-score) [30]: -0.244
- glycan array binding signal (z-score) [31]: 0.836
- glycan array binding signal (z-score) [32]: -0.689
- glycan array binding signal (z-score) [33]: -0.861
- glycan array binding signal (z-score) [34]: 0.065
- glycan array binding signal (z-score) [35]: -0.403
- glycan array binding signal (z-score) [36]: -0.502
- glycan array binding signal (z-score) [37]: 0.419
- glycan array binding signal (z-score) [38]: -0.435
- glycan array binding signal (z-score) [39]: -0.295
- glycan array binding signal (z-score) [40]: -1.07
- glycan array binding signal (z-score) [41]: -0.471
- glycan array binding signal (z-score) [42]: -0.252
- glycan array binding signal (z-score) [43]: -0.136
- glycan array binding signal (z-score) [44]: 0.574
- glycan array binding signal (z-score) [45]: -1.11
- glycan array binding signal (z-score) [46]: 0.141
- glycan array binding signal (z-score) [47]: -0.066
- glycan array binding signal (z-score) [48]: -0.022
- glycan array binding signal (z-score) [49]: -1.74
- glycan array binding signal (z-score) [50]: -0.087
- glycan array binding signal (z-score) [51]: -1.17
- glycan array binding signal (z-score) [52]: -0.487
- glycan array binding signal (z-score) [53]: 0.098
